{"source": "PubChem BioAssay AID588497", "about": "(NMMLSC, 2011)", "note": "About 780 (0.22%) of roughly 360,000 compounds were called active. The shares of active, inactive and inconclusive entries below differ from those in the screen. Cut-off read from the data, not from the text of the source: active = inhibition above about 35% (passing the limit was not always enough); inconclusive = no clear call, values can overlap the other calls.", "data": [{"test_system": "Botulinum neurotoxin type F light chain protease (Clostridium botulinum)", "test": "BoNT/F light chain protease inhibitors, primary screen, biochemical, flow cytometry, MLPCN library (AID 588497); note: plate controls were buffer without enzyme for full effect and enzyme alone for no effect", "conditions": "Multiplex microsphere protease cleavage assay, at 10 µM, active compounds read high", "values": [{"smiles": "Cc1cc(C)c(OCCN2CCOCC2)c(Cl)c1", "inhibition": "inconclusive: 9.6%"}, {"smiles": "Cc1ccc(C)c(OC(=O)C2CSC3(C)CCC(=O)N23)c1C", "note": "(configuration not stated)", "inhibition": "inactive: 0.7%"}, {"smiles": "COC(=O)C1=C(C)NC(C)=C(C(=O)OC)C1c1ccc(OC(=O)c2oc3ccccc3c2C)c(OC)c1", "inhibition": "inactive: -2.3%"}, {"smiles": "C#CCNC(=O)C1=C[C@H](c2ccc(C(F)(F)F)cc2)C[C@H](OCc2ccc(CO)cc2)O1", "inhibition": "inactive: 1%"}, {"smiles": "Clc1ccc(C2CSc3c4ncnc-4ncn32)cc1", "note": "(configuration not stated)", "inhibition": "inconclusive: 17.1%"}, {"smiles": "COC(=O)c1cc(NC(=O)c2cc(-c3ccc(Cl)cc3)oc2C(F)(F)F)ccc1N1CCOCC1", "inhibition": "inconclusive: -18.8%"}, {"smiles": "Cc1cccc(CC2CC(=O)N(c3ccccc3)C2=O)c1", "note": "(configuration not stated)", "inhibition": "inconclusive: -14.2%"}, {"smiles": "COc1ccccc1-[n+]1c(C)cc(/C=C2\\Sc3ccccc3N2C)cc1C", "inhibition": "inactive: -1.8%"}, {"smiles": "CCCCn1c(N)c(N(C(=O)CSc2nncn2-c2ccccc2C)C2CCCC2)c(=O)[nH]c1=O", "inhibition": "inactive: 3.9%"}, {"smiles": "CN(C)C(C(=O)NC1CCCCC1)c1ccc(Cl)cc1", "note": "(configuration not stated)", "inhibition": "inconclusive: -7.9%"}, {"smiles": "CCn1c(CCNC(=O)c2ccc(Cl)cc2)n[nH]c1=S", "inhibition": "inactive: 2.1%"}, {"smiles": "COc1ccc(C(=O)NCC(c2ccco2)N2CCc3ccccc32)cc1", "note": "(configuration not stated)", "inhibition": "inconclusive: -20.2%"}, {"smiles": "COc1ccccc1N1CCN(C2CCCN(Cc3c(F)cccc3F)C2)CC1", "note": "(configuration not stated)", "inhibition": "inconclusive: -23%"}, {"smiles": "COc1ccc(C(=O)Nn2c(C)nc3ccccc3c2=O)cc1", "inhibition": "inconclusive: 6.9%"}, {"smiles": "CSc1cccc(NC(=S)Nc2cc(C)ccc2C)c1", "inhibition": "inconclusive: -164%"}, {"smiles": "COc1ccc(S(=O)(=O)NCCCn2ccnc2)cc1Cl", "inhibition": "inconclusive: 10.3%"}, {"smiles": "COC(=O)C1=CN(c2ccc(F)c(F)c2)C=C(C(=O)OC)C1c1ccc([N+](=O)[O-])cc1", "inhibition": "inconclusive: -21.1%"}, {"smiles": "CCOc1ccc(NC(=O)c2ccccc2-c2ccccc2C(=O)O)cc1", "inhibition": "inconclusive: -18.9%"}, {"smiles": "COc1ccccc1C(CNC(=O)c1ccc(NS(=O)(=O)c2ccc3c(c2)OCCO3)cc1)N(C)C", "note": "(configuration not stated)", "inhibition": "inactive: -7.9%"}, {"smiles": "CC(=O)C1C(=O)CC(c2ccc(Cl)cc2)CC1=O", "note": "(configuration not stated)", "inhibition": "inconclusive: -11.9%"}, {"smiles": "COc1ccccc1NC(=O)C(C)OC(=O)/C(=C/c1ccccc1)NC(C)=O", "note": "(configuration not stated)", "inhibition": "inconclusive: 20.5%"}, {"smiles": "O=C(Nn1c(O)c(C=C2N=c3ccccc3=N2)sc1=S)c1ccccc1Cl", "inhibition": "active: 55.2%"}, {"smiles": "Cc1ccc2ccc(C(Nc3ccccn3)c3ccccc3)c(O)c2n1", "note": "(configuration not stated)", "inhibition": "inactive: -6.7%"}, {"smiles": "CCc1ccccc1N(CC(=O)NC(C)(C)CC)C(=O)CCC(=O)Nc1nccs1", "inhibition": "inconclusive: -46.6%"}, {"smiles": "COC(=O)c1cc(OC)c(OC)cc1NC(=O)CSc1ccccc1", "inhibition": "inconclusive: -17.8%"}, {"smiles": "Cc1cc(SCC(=O)N/N=C/c2ccco2)nc2ccccc12", "inhibition": "inactive: -10%"}, {"smiles": "COc1ccc(C2CC(C)=C(C#N)S(=O)(=O)C2C#N)cc1", "note": "(configuration not stated)", "inhibition": "inconclusive: 7.2%"}, {"smiles": "COC(=O)c1sccc1-c1ccc(/C=N/OC(=O)c2cccs2)o1", "inhibition": "inconclusive: -7.7%"}, {"smiles": "COc1c(Cl)cc(Cl)cc1C(=O)n1nc(C)cc1C", "inhibition": "inconclusive: -18.6%"}, {"smiles": "CCc1nnc(NC(=O)CN2CCN(Cc3cccc(Cl)c3)CC2)s1", "inhibition": "inconclusive: -9.9%"}, {"smiles": "CCCCOc1ccc(C(=O)NCCC(=O)NCCCC(=O)OCC)cc1", "inhibition": "inconclusive: 147%"}, {"smiles": "CCN1CC2C3CCC(C)(O3)C2C1", "note": "(configuration not stated)", "inhibition": "inconclusive: -14.6%"}, {"smiles": "CC(=O)CSc1cc(C)nc2c(-c3ccccc3)c(C)nn12", "inhibition": "inconclusive: 44.4%"}, {"smiles": "CCCCn1c(-c2nonc2N)nc2ccccc21", "inhibition": "inactive: -4.6%"}, {"smiles": "COc1cc2c(cc1OC)CN(C1CCC(C)CC1)CC2", "note": "(configuration not stated)", "inhibition": "inconclusive: -4.1%"}, {"smiles": "CC(C)(C)c1ccc(N2C(=O)Cc3c2nc(N)c(C#N)c3N)cc1", "inhibition": "inconclusive: 52.3%"}, {"smiles": "COc1ccc(CCn2c(C)cc(C(=O)CN3C(=O)C(=O)N(Cc4ccco4)C3=O)c2C)cc1", "inhibition": "inactive: -10.5%"}, {"smiles": "CC(C)CN1C(=O)C(=O)N(CC(=O)NCCCc2ccccc2)C1=O", "inhibition": "inactive: 7.3%"}, {"smiles": "Cc1c(CCC(=O)O)c(=O)oc2cc(OCc3cccc(Cl)c3)ccc12", "inhibition": "active: 39.7%"}, {"smiles": "Cc1ccc2[nH]c3nc(N/N=C/c4cccc(O)c4)nnc3c2c1", "inhibition": "inconclusive: -20.2%"}, {"smiles": "Cc1cc(S(=O)(=O)Cc2noc(-c3c(C)noc3C)n2)c(C)cc1Cl", "inhibition": "inconclusive: 45.2%"}, {"smiles": "Cc1ccc(C)c(N2C(=O)c3cc(N4CCOCC4)c([N+](=O)[O-])cc3C2=O)c1", "inhibition": "inactive: -10.9%"}, {"smiles": "Cc1cccc(NC(=O)CSc2nc3[nH]c(=O)cc(O)c3s2)c1", "inhibition": "inconclusive: -18.2%"}, {"smiles": "COC(=O)[C@@]1(Cc2ccc(F)cc2)[C@H]2c3cc(C(=O)N4CCCC4)n(CCN4CCNC4=O)c3C[C@H]2CN1C(=O)c1ccccc1", "inhibition": "inactive: -0.5%"}, {"smiles": "O=C(CCCN1C(=O)c2ccccc2C1=O)Nc1ccc(S(=O)(=O)N2CCCCC2)cc1", "inhibition": "inactive: -14.5%"}, {"smiles": "Cc1ccsc1C(=O)OCC(=O)NCCNC(=O)COC(=O)c1sccc1C", "inhibition": "inconclusive: -2.9%"}, {"smiles": "CCCCCCCN=C(C)c1ccccc1O", "inhibition": "inconclusive: 51.7%"}, {"smiles": "CCCCc1c(O)cc(C)[nH]c1=O", "inhibition": "inconclusive: 7.4%"}, {"smiles": "O=[N+]([O-])c1cccnc1Sc1n[nH]c(-c2ccc(Cl)cc2)n1", "inhibition": "inconclusive: -17.1%"}, {"smiles": "CCCCNC(=O)/C(C#N)=C/c1ccc(F)cc1F", "inhibition": "inactive: -1.1%"}, {"smiles": "COC(=O)CSc1nnc(CNC(=O)c2ccc(S(=O)(=O)N3CCCCC3)cc2)n1C", "inhibition": "inactive: -3.8%"}, {"smiles": "O=C1c2ccccc2C(=O)N1c1ccc(S(=O)(=O)N2CCCCC2)cc1", "inhibition": "inconclusive: 43.5%"}, {"smiles": "Cc1nnc2n(Cc3ccccc3)c(=O)c3c4c(sc3n12)COC(C)(C)C4", "inhibition": "inconclusive: 21.8%"}, {"smiles": "Cc1ccc(C(=O)C(=O)c2ccc(C)c(N)c2)cc1N", "inhibition": "inconclusive: -25.8%"}, {"smiles": "CCOc1ccc(S(=O)(=O)N2CCCCC2)cc1NC(=O)Cc1cc(OC)c(OC)c(OC)c1", "inhibition": "inactive: 4%"}, {"smiles": "O=C(O)c1ccc(CN(c2ccccc2)S(=O)(=O)c2ccccc2)cc1", "inhibition": "inconclusive: -69.9%"}, {"smiles": "Cc1nn(-c2cc(N3CCCCC3)ccc2N)c(=O)c2ccccc12", "inhibition": "inactive: 0%"}]}]}
